The record followed here is article doi:10.1101/299610.

Sequences of proteins named here, by UniProt entry; tags and fusion partners are left off.
UniProt Q15836: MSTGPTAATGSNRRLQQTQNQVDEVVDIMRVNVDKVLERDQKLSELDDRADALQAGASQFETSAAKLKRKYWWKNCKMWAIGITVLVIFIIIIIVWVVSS

For the experiment, the target named is GFP-VAMP3 (UniProt Q15836). Briefly: co-IP.

These are yes or no findings as the source states them, for the method shown. In cells and extracts the contact can be indirect. Some binding calls cover weakened binding; strength is not graded here.

B1: mCherry-WDFY2 (protein, UniProt Q96P53 1-400)
chain: MAAEIQPKPLTRKPILLQRMEGSQEVVNMAVIVPKEEGVISVSEDRTVRVWLKRDSGQYWPSVYHAMPSPCSCMSFNPETRRLSIGLDNGTISEFILSEDYNKMTPVKNYQAHQSRVTMILFVLELEWVLSTGQDKQFAWHCSESGQRLGGYRTSAVASGLQFDVETRHVFIGDHSGQVTILKLEQENCTLVTTFRGHTGGVTALCWDPVQRVLFSGSSDHSVIMWDIGGRKGTAIELQGHNDRVQALSYAQHTRQLISCGGDGGIVVWNMDVERQETPEWLDSDSCQKCDQPFFWNFKQMWDSKKIGLRQHHCRKCGKAVCGKCSSKRSSIPLMGFEFEVRVCDSCHEAITDEERAPTATFHDSKHNIVHVHFDATRGWLLTSGTDKVIKLWDMTPVVS
On to B1, for which the binding result was “binds”.
